Patent US20250283871A1, “COMPOSITIONS AND METHODS FOR MODULATING THE INTERACTION BETWEEN SS18-SSX FUSION ONCOPROTEIN AND NUCLEOSOMES” (Dana-Farber Cancer Institute, Inc., priority 2020, published 2025)

B1: CDCA2 (protein, UniProt Q69YH5 1-1023, looked up)
Cell division …: MDANSKDKPPETKESAMNNAGNASFILGTGKIVTPQKHAELPPNPCTPDTFKSPLNFSTVTVEQLGITPESFVRNSAGKSSSYLKKCRRRSAVGARGSPETNHLIRFIARQQNIKNARKSPLAQDSPSQGSPALYRNVNTLRERISAFQSAFHSIKENEKMTGCLEFSEAGKESEMTDLTRKEGLSACQQSGFPAVLSSKRRRISYQRDSDENLTDAEGKVIGLQIFNIDTDRACAVETSVDLSEISSKLGSTQSGFLVEESLPLSELTETSNALKVADCVVGKGSSDAVSPDTFTAEVSSDAVPDVRSPATPACRRDLPTPKTFVLRSVLKKPSVKMCLESLQEHCNNLYDDDGTHPSLISNLPNCCKEKEAEDEENFEAPAFLNMRKRKRVTFGEDLSPEVFDESLPANTPLRKGGTPVCKKDFSGLSSLLLEQSPVPEPLPQPDFDDKGENLENIEPLQVSFAVLSSPNKSSISETLSGTDTFSSSNNHEKISSPKVGRITRTSNRRNQLVSVVEESVCNLLNTEVQPCKEKKINRRKSQETKCTKRALPKKSQVLKSCRKKKGKGKKSVQKSLYGERDIASKKPLLSPIPELPEVPEMTPSIPSIRRLGSGYFSSNGKLEEVKTPKNPVKRKDLLRHDPDLHMHQGYDKYDVSEFCSYIKSSSSLGNATSDEDPNTNIMNINENKNIPKAKNKSESENEPKAGTDSPVSCASVTEERVASDSPKPALTLQQGQEFSAGGQNAENLCQFFKISPDLNIKCERKDDFLGAAEGKLQCNRLMPNSQKDCHCLGDVLIENTKESKSQSEDLGRKPMESSSVVSCRDRKDRRRSMCYSDGRSLHLEKNGNHTPSSSVGSSVEISLENSELFKDLSDAIEQTFQRRNSETKVRRSTRLQKDLENEGLVWISLPLPSTSQKAKRRTICTFDSSGFESMSPIKETVSSRQKPQMAPPVSDPENSQGPAAGSSDEPGKRRKSFCISTLANTKATSQFKGYRRRSSLNGKGESSLTALERIEHNGERKQ
B2: PHF2 (protein, UniProt O75151 1-1096, looked up)
Lysine-specific demethylase …: MATVPVYCVCRLPYDVTRFMIECDACKDWFHGSCVGVEEEEAPDIDIYHCPNCEKTHGKSTLKKKRTWHKHGPGQAPDVKPVQNGSQLFIKELRSRTFPSAEDVVARVPGSQLTLGYMEEHGFTEPILVPKKDGLGLAVPAPTFYVSDVENYVGPERSVDVTDVTKQKDCKMKLKEFVDYYYSTNRKRVLNVTNLEFSDTRMSSFVEPPDIVKKLSWVENYWPDDALLAKPKVTKYCLICVKDSYTDFHIDSGGASAWYHVLKGEKTFYLIRPASANISLYERWRSASNHSEMFFADQVDKCYKCIVKQGQTLFIPSGWIYATLTPVDCLAFAGHFLHSLSVEMQMRAYEVERRLKLGSLTQFPNFETACWYMGKHLLEAFKGSHKSGKQLPPHLVQGAKILNGAFRSWTKKQALAEHEDELPEHFKPSQLIKDLAKEIRLSENASKAVRPEVNTVASSDEVCDGDREKEEPPSPIEATPPQSLLEKVSKKKTPKTVKMPKPSKIPKPPKPPKPPRPPKTLKLKDGGKKKGKKSRESASPTIPNLDLLEAHTKEALTKMEPPKKGKATKSVLSVPNKDVVHMQNDVERLEIREQTKSKSEAKWKYKNSKPDSLLKMEEEQKLEKSPLAGNKDNKFSFSFSNKKLLGSKALRPPTSPGVFGALQNFKEDKPKPVRDEYEYVSDDGELKIDEFPIRRKKNAPKRDLSFLLDKKAVLPTPVTKPKLDSAAYKSDDSSDEGSLHIDTDTKPGRNARVKKESGSSAAGILDLLQASEEVGALEYNPSSQPPASPSTQEAIQGMLSMANLQASDSCLQTTWGAGQAKGSSLAAHGARKNGGGSGKSAGKRLLKRAAKNSVDLDDYEEEQDHLDACFKDSDYVYPSLESDEDNPIFKSRSKKRKGSDDAPYSPTARVGPSVPRQDRPVREGTRVASIETGLAAAAAKLSQQEEQKSKKKKSAKRKLTPNTTSPSTSTSISAGTTSTSTTPASTTPASTTPASTSTASSQASQEGSSPEPPPESHSSSLADHEYTAAGTFTGAQAGRTSQPMAPGVFLTQRRPSASSPNNNTAAKGKRTKKGMATAKQRLGKILKIHRNGKLLL
B3: FUS (protein, UniProt P35637 1-526, looked up)
RNA-binding protein FUS: MASNDYTQQATQSYGAYPTQPGQGYSQQSSQPYGQQSYSGYSQSTDTSGYGQSSYSSYGQSQNTGYGTQSTPQGYGSTGGYGSSQSSQSSYGQQSSYPGYGQQPAPSSTSGSYGSSSQSSSYGQPQSGSYSQQPSYGGQQQSYGQQQSYNPPQGYGQQNQYNSSSGGGGGGGGGGNYGQDQSSMSSGGGSGGGYGNQDQSGGGGSGGYGQQDRGGRGRGGSGGGGGGGGGGYNRSSGGYEPRGRGGGRGGRGGMGGSDRGGFNKFGGPRDQGSRHDSEQDNSDNNTIFVQGLGENVTIESVADYFKQIGIIKTNKKTGQPMINLYTDRETGKLKGEATVSFDDPPSAKAAIDWFDGKEFSGNPIKVSFATRRADFNRGGGNGRGGRGRGGPMGRGGYGGGGSGGGGRGGFPSGGGGGGGQQRAGDWKCPNPTCENMNFSWRNECNQCKAPKPDGPGGGPGGSHMGGNYGDDRRGGRGGYDRGGYRGRGGDRGGFRGGRGGGDRGGFGPGKMDSRGEHRQDRRERPY
B4: UTP11 (protein, UniProt Q9Y3A2 1-253, looked up)
Probable U3 small nucleolar …: MAAAFRKAAKSRQREHRERSQPGFRKHLGLLEKKKDYKLRADDYRKKQEYLKALRKKALEKNPDEFYYKMTRVKLQDGVHIIKETKEEVTPEQLKLMRTQDVKYIEMKRVAEAKKIERLKSELHLLDFQGKQQNKHVFFFDTKKEVEQFDVATHLQTAPELVDRVFNRPRIETLQKEKVKGVTNQTGLKRIAKERQKQYNCLTQRIEREKKLFVIAQKIQTRKDLMDKTQKVKVKKETVNSPAIYKFQSRRKR
B5: BRIX1 (protein, UniProt Q8TDN6 1-353, looked up)
Ribosome biogenesis protein …: MAATKRKRRGGFAVQAKKPKRNEIDAEPPAKRHATAEEVEEEERDRIPGPVCKGKWKNKERILIFSSRGINFRTRHLMQDLRMLMPHSKADTKMDRKDKLFVINEVCEMKNCNKCIYFEAKKKQDLYMWLSNSPHGPSAKFLVQNIHTLAELKMTGNCLKGSRPLLSFDPAFDELPHYALLKELLIQIFSTPRYHPKSQPFVDHVFTFTILDNRIWFRNFQIIEEDAALVEIGPRFVLNLIKIFQGSFGGPTLYENPHYQSPNMHRRVIRSITAAKYREKQQVKDVQKLRKKEPKTLLPHDPTADVFVTPAEEKPIEIQWVKPEPKVDLKARKKRIYKRQRKMKQRMDSGKTK
B6: CWC22 (protein, UniProt Q9HCG8 1-908, looked up)
Pre-mRNA-splicing factor …: MKSSVAQIKPSSGHDRRENLNSYQRNSSPEDRYEEQERSPRDRDYFDYSRSDYEHSRRGRSYDSSMESRNRDREKRRERERDTDRKRSRKSPSPGRRNPETSVTQSSSAQDEPATKKKKDELDPLLTRTGGAYIPPAKLRMMQEQITDKNSLAYQRMSWEALKKSINGLINKVNISNISIIIQELLQENIVRGRGLLSRSVLQAQSASPIFTHVYAALVAIINSKFPQIGELILKRLILNFRKGYRRNDKQLCLTASKFVAHLINQNVAHEVLCLEMLTLLLERPTDDSVEVAIGFLKECGLKLTQVSPRGINAIFERLRNILHESEIDKRVQYMIEVMFAVRKDGFKDHPIILEGLDLVEEDDQFTHMLPLEDDYNPEDVLNVFKMDPNFMENEEKYKAIKKEILDEGDTDSNTDQDAGSSEEDEEEEEEEGEEDEEGQKVTIHDKTEINLVSFRRTIYLAIQSSLDFEECAHKLLKMEFPESQTKELCNMILDCCAQQRTYEKFFGLLAGRFCMLKKEYMESFEGIFKEQYDTIHRLETNKLRNVAKMFAHLLYTDSLPWSVLECIKLSEETTTSSSRIFVKIFFQELCEYMGLPKLNARLKDETLQPFFEGLLPRDNPRNTRFAINFFTSIGLGGLTDELREHLKNTPKVIVAQKPDVEQNKSSPSSSSSASSSSESDSSDSDSDSSDSSSESSSEESDSSSISSHSSASANDVRKKGHGKTRSKEVDKLIRNQQTNDRKQKERRQEHGHQETRTERERRSEKHRDQNSSGSNWRDPITKYTSDKDVPSERNNYSRVANDRDQEMHIDLENKHGDPKKKRGERRNSFSENEKHTHRIKDSENFRRKDRSKSKEMNRKHSGSRSDEDRYQNGAERRWEKSSRYSEQSRESKKNQDRRREKSPAKQK
B7: RPS10P5 (protein, UniProt Q9NQ39 1-176, looked up)
Putative ribosomal protein …: MLMPKKNRIAIHELLFKEGVMVAKKDVHMPKHPELADKNVPNLHVMKAMQSLKSRGCVKEQFAWRHFYWYLTNEGSQYLRDYLHLPPEIVPATLHLPPEIVPATLHRSRPETGRPRPKGLEGKRPARLTRREADRDTYRRCSVPPGADKKAEAGAGSATEFQFRGRCGRGRGQPPQ
B8: SLC25A13 (protein, UniProt Q9UJS0 2-675, looked up)
Electrogenic …: AAAKVALTKRADPAELRTIFLKYASIEKNGEFFMSPNDFVTRYLNIFGESQPNPKTVELLSGVVDQTKDGLISFQEFVAFESVLCAPDALFMVAFQLFDKAGKGEVTFEDVKQVFGQTTIHQHIPFNWDSEFVQLHFGKERKRHLTYAEFTQFLLEIQLEHAKQAFVQRDNARTGRVTAIDFRDIMVTIRPHVLTPFVEECLVAAAGGTTSHQVSFSYFNGFNSLLNNMELIRKIYSTLAGTRKDVEVTKEEFVLAAQKFGQVTPMEVDILFQLADLYEPRGRMTLADIERIAPLEEGTLPFNLAEAQRQKASGDSARPVLLQVAESAYRFGLGSVAGAVGATAVYPIDLVKTRMQNQRSTGSFVGELMYKNSFDCFKKVLRYEGFFGLYRGLLPQLLGVAPEKAIKLTVNDFVRDKFMHKDGSVPLAAEILAGGCAGGSQVIFTNPLEIVKIRLQVAGEITTGPRVSALSVVRDLGFFGIYKGAKACFLRDIPFSAIYFPCYAHVKASFANEDGQVSPGSLLLAGAIAGMPAASLVTPADVIKTRLQVAARAGQTTYSGVIDCFRKILREEGPKALWKGAGARVFRSSPQFGVTLLTYELLQRWFYIDFGGVKPMGSEPVPKSRINLPAPNPDHVGGYKLAVATFAGIENKFGLYLPLFKPSVSTSKAIGGGP

Test system: BAF complex subunits and histone proteins
Assay: Mass spectrometry proteomics of purified HA-SS18 WT and HA-SS18-SSX1 complexes (Tables 5A-5E)
Design: species or system human
Conditions: for Total / Unique: HA-SS18SSX1_CHR_peptides; for Total: total peptides of the identified protein; for Unique: unique peptides of the identified protein; for Total (total peptides) / Unique (unique peptides) / Total (peptides) / Unique (peptides): HEK-293T
[1] = HA-SS18WT_CHR_peptides: protein identified in HA-SS18 WT BAF complex purification from nuclease-treated solubilized chromatin (CHR)
[2] = HA-SS18WT_NE_peptides: proteins co-purified with HA-SS18 WT from nuclear extract (NE)
[3] = HA-SS18SSX1 purification, NE (soluble nuclear extract) fraction, peptides per identified protein
[4] = HA-SS18WT_CHR_peptides: HA-SS18 WT purification from nuclease-treated solubilized chromatin (CHR), label = protein identified
[5] = HA-SS18WT_NE_peptides: HA-SS18 WT complexes purified from nuclear extract (NE), label = protein identified (Gene Symbol)

Row | Molecule | Total | Unique | Total (total peptides) [1] | Unique (unique peptides) [1] | other results
1 | B1 | 2 | 2 | 1 | 1 | 
2 | B2 | 2 | 2 | 2 | 1 | 
3 | B3 | 2 | 2 |  |  | Total (peptides) [2]: 1; Unique (peptides) [2]: 1
4 | B4 | 2 | 2 | 1 | 1 | 
5 | B5 | 2 | 2 |  |  | 
6 | B6 | 2 | 2 |  |  | 
7 | B7 | 2 | 2 | 1 | 1 | 
8 | B8 | 2 | 2 |  |  | Total (total peptides) [3]: 34; Unique (unique peptides) [3]: 23; Total (peptides) [4]: 4; Unique (peptides) [4]: 4; Total (peptides) [5]: 24; Unique (peptides) [5]: 22
